Some of the results follow.
Experiments:
Assay in all cases: glycan array binding signal (z-score within array); higher = stronger binding
Details in all cases: glycan notation: IUPAC condensed, linker removed
[1] = target: Fuc(a1-2)[Gal(a1-3)]Gal(b1-4)GlcNAc(b1-2)Man(a1-3)[Fuc(a1-2)[Gal(a1-3)]Gal(b1-4)GlcNAc(b1-2)Man(a1-6)]Man(b1-4)GlcNAc(b1-4)[Fuc(a1-6)]GlcNAc
How it was run: (§1)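 The binding signal is a Z-score computed within each array. Data were drawn from 3228 arrays in the Consortium for Functional Glycomics database, restricted to those with a known protein sequence. Scores were averaged over arrays of the same protein sequence at different concentrations or buffers, and over linkers, and negative values can be taken as non-binding.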

[2] = target: Fuc(a1-2)[Gal(a1-3)]Gal(b1-4)GlcNAc(b1-3)GalNAc
How it was run: as §1

[3] = target: Fuc(a1-2)[Gal(a1-3)]Gal(b1-4)GlcNAc(b1-3)[Fuc(a1-2)[Gal(a1-3)]Gal(b1-4)GlcNAc(b1-6)]GalNAc
How it was run: as §1

[4] = target: Fuc(a1-2)[Gal(a1-3)]Gal(b1-4)GlcNAc(b1-6)GalNAc
How it was run: as §1

[5] = target: Fuc(a1-2)[Gal(a1-3)]Gal(b1-4)[Fuc(a1-3)]Glc
How it was run: as §1

[6] = target: Fuc(a1-2)[Gal(a1-3)]Gal(b1-4)[Fuc(a1-3)]GlcNAc
How it was run: as §1

[7] = target: Fuc(a1-2)[Gal(a1-3)]Gal(b1-4)[Fuc(a1-3)]GlcNAc(b1-3)GalNAc
How it was run: as §1

[8] = target: Fuc(a1-2)[Gal(a1-4)]Gal(b1-4)GlcNAc
How it was run: as §1

[9] = target: Fuc(a1-2)[GalNAc(a1-3)]Gal
How it was run: as §1

[10] = target: Fuc(a1-2)[GalNAc(a1-3)]Gal(b1-3)GalNAc(a1-3)[Fuc(a1-2)]Gal(b1-4)GlcNAc
How it was run: as §1

[11] = target: Fuc(a1-2)[GalNAc(a1-3)]Gal(b1-3)GalNAc(b1-3)Gal(a1-4)Gal(b1-4)Glc
How it was run: as §1

[12] = target: Fuc(a1-2)[GalNAc(a1-3)]Gal(b1-3)GlcNAc
How it was run: as §1

[13] = target: Fuc(a1-2)[GalNAc(a1-3)]Gal(b1-3)GlcNAc(b1-2)Man(a1-3)[Fuc(a1-2)[GalNAc(a1-3)]Gal(b1-3)GlcNAc(b1-2)Man(a1-6)]Man(b1-4)GlcNAc(b1-4)GlcNAc
How it was run: as §1

[14] = target: Fuc(a1-2)[GalNAc(a1-3)]Gal(b1-3)GlcNAc(b1-2)Man(a1-3)[Fuc(a1-2)[GalNAc(a1-3)]Gal(b1-3)GlcNAc(b1-2)Man(a1-6)]Man(b1-4)GlcNAc(b1-4)[Fuc(a1-6)]GlcNAc
How it was run: as §1

[15] = target: Fuc(a1-2)[GalNAc(a1-3)]Gal(b1-3)GlcNAc(b1-3)GalNAc
How it was run: as §1

[16] = target: Fuc(a1-2)[GalNAc(a1-3)]Gal(b1-3)GlcNAc(b1-6)GalNAc
How it was run: as §1

[17] = target: Fuc(a1-2)[GalNAc(a1-3)]Gal(b1-4)Glc
How it was run: as §1

[18] = target: Fuc(a1-2)[GalNAc(a1-3)]Gal(b1-4)GlcNAc
How it was run: as §1

[19] = target: Fuc(a1-2)[GalNAc(a1-3)]Gal(b1-4)GlcNAc(b1-2)Man
How it was run: as §1

[20] = target: Fuc(a1-2)[GalNAc(a1-3)]Gal(b1-4)GlcNAc(b1-2)Man(a1-3)[Fuc(a1-2)[GalNAc(a1-3)]Gal(b1-4)GlcNAc(b1-2)Man(a1-6)]Man(b1-4)GlcNAc(b1-4)GlcNAc
How it was run: as §1

[21] = target: Fuc(a1-2)[GalNAc(a1-3)]Gal(b1-4)GlcNAc(b1-2)Man(a1-3)[Fuc(a1-2)[GalNAc(a1-3)]Gal(b1-4)GlcNAc(b1-2)Man(a1-6)]Man(b1-4)GlcNAc(b1-4)[Fuc(a1-6)]GlcNAc
How it was run: as §1

[22] = target: Fuc(a1-2)[GalNAc(a1-3)]Gal(b1-4)GlcNAc(b1-3)Gal(b1-4)GlcNAc
How it was run: as §1

[23] = target: Fuc(a1-2)[GalNAc(a1-3)]Gal(b1-4)GlcNAc(b1-3)Gal(b1-4)GlcNAc(b1-3)Gal(b1-4)GlcNAc
How it was run: as §1

[24] = target: Fuc(a1-2)[GalNAc(a1-3)]Gal(b1-4)GlcNAc(b1-3)GalNAc
How it was run: as §1

[25] = target: Fuc(a1-2)[GalNAc(a1-3)]Gal(b1-4)GlcNAc(b1-3)[Fuc(a1-2)[GalNAc(a1-3)]Gal(b1-4)GlcNAc(b1-6)]GalNAc
How it was run: as §1

[26] = target: Fuc(a1-2)[GalNAc(a1-3)]Gal(b1-4)GlcNAc(b1-6)GalNAc
How it was run: as §1

[27] = target: Fuc(a1-2)[GalNAc(a1-3)]Gal(b1-4)[Fuc(a1-3)]GlcNAc
How it was run: as §1

[28] = target: Fuc(a1-2)[GalNAc(a1-3)]Gal(b1-4)[Fuc(a1-3)]GlcNAc(b1-3)GalNAc
How it was run: as §1

[29] = target: Fuc(a1-2)[GalNAc(a1-4)]Gal(b1-4)GlcNAc
How it was run: as §1

[30] = target: Fuc(a1-2)[GalNAc(b1-3)]Gal
How it was run: as §1

[31] = target: Fuc(a1-3)GlcNAc
How it was run: as §1

[32] = target: Fuc(a1-3)[Gal(b1-4)]Glc6S
How it was run: as §1

[33] = target: Fuc(a1-3)[Gal(b1-4)]GlcNAc
How it was run: as §1

[34] = target: Fuc(a1-3)[Gal(b1-4)]GlcNAc(b1-2)Man
How it was run: as §1

[35] = target: Fuc(a1-3)[Gal(b1-4)]GlcNAc(b1-2)Man(a1-3)[Fuc(a1-3)[Gal(b1-4)]GlcNAc(b1-2)Man(a1-6)]Man(b1-4)GlcNAc(b1-4)GlcNAc
How it was run: as §1

[36] = target: Fuc(a1-3)[Gal(b1-4)]GlcNAc(b1-2)Man(a1-3)[Fuc(a1-3)[Gal(b1-4)]GlcNAc(b1-2)Man(a1-6)]Man(b1-4)GlcNAc(b1-4)[Fuc(a1-6)]GlcNAc
How it was run: as §1

[37] = target: Fuc(a1-3)[Gal(b1-4)]GlcNAc(b1-3)Gal(b1-3)[Fuc(a1-4)]GlcNAc
How it was run: as §1

B1: PX14343C-bfa-541-26-541 (Bacteroides fragilis) (protein)
chain: KAPLDEIADDSFWSDETLVKYYVNDLYSEISVDGLQLQENRSDNSVSAQRDKYRASWFKFNYDMVSASDPQDDDVWEDYYVKVRKCNRFFERIGTSTIEESEKSRLTGEVHFLRAMFYFEMVKRYGGVILLDKVLTMEDNWEIPRSSEKECYDFILEDLKKATEMLPASYGSREKGRATKGAAYALKSRVELYDKRYEDVIKSCAEVYKLGYELVDGTTPEKYRSIWWTTNKDNKEIIFDVQYKSPDVYNNMMVCNMVTYINDKYGDRGWGGLGPTQELIDAFEMADGTPATQYSQAPADQVFDINTCGIYEGREPRFYANIVFHGSQIFFNADKGAVTVDRYLMDTPDKGDGSLTGYNVWKWIDYDNYNYPYAGAGSPDFSTNWIILRYAEIYLNDAEARLETGDVEGARKAVNMIRQRVGLPDLTESDPEKLRELIRKERRIEFAFEEQRFYDVRRWKIGPETQTTLHGVRFVSPTEFKVTKTDIRTWNDRLYLTPVPHDEIVRSSVLKQNLGY
glycan array binding signal (z-score) [1]: 0.027
glycan array binding signal (z-score) [2]: -0.339
glycan array binding signal (z-score) [3]: -0.154
glycan array binding signal (z-score) [4]: 0.018
glycan array binding signal (z-score) [5]: -0.83
glycan array binding signal (z-score) [6]: -0.327
glycan array binding signal (z-score) [7]: 0.311
glycan array binding signal (z-score) [8]: 0.174
glycan array binding signal (z-score) [9]: -0.661
glycan array binding signal (z-score) [10]: 0.153
glycan array binding signal (z-score) [11]: 0.049
glycan array binding signal (z-score) [12]: 1.41
glycan array binding signal (z-score) [13]: 0.09
glycan array binding signal (z-score) [14]: 0.839
glycan array binding signal (z-score) [15]: -0.56
glycan array binding signal (z-score) [16]: 0.051
glycan array binding signal (z-score) [17]: 0.571
glycan array binding signal (z-score) [18]: -0.605
glycan array binding signal (z-score) [19]: -0.738
glycan array binding signal (z-score) [20]: 2.15
glycan array binding signal (z-score) [21]: 0.339
glycan array binding signal (z-score) [22]: 0.379
glycan array binding signal (z-score) [23]: 0.368
glycan array binding signal (z-score) [24]: 0.855
glycan array binding signal (z-score) [25]: -0.603
glycan array binding signal (z-score) [26]: 0.182
glycan array binding signal (z-score) [27]: 1.23
glycan array binding signal (z-score) [28]: 0.409
glycan array binding signal (z-score) [29]: 0.255
glycan array binding signal (z-score) [30]: -1.08
glycan array binding signal (z-score) [31]: -0.322
glycan array binding signal (z-score) [32]: 1.22
glycan array binding signal (z-score) [33]: -0.203
glycan array binding signal (z-score) [34]: -0.929
glycan array binding signal (z-score) [35]: -0.236
glycan array binding signal (z-score) [36]: 0.223
glycan array binding signal (z-score) [37]: -0.573
